Values from PubChem BioAssay AID686943 (Drosophila RNAi Screening Center, 2013)
In all, the deposit lists about 23,000 reagents; below is a random part of those that have a named target and a result. 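Extra replicates exist only for a retested subset of genes; insulin dose and duration not given; both raised and lowered dpERK matter.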 A plus sign joins genes that one reagent is predicted to hit. Not all columns of the deposit are shown. Reagent sequences are not shown. Not stated in the record: the amount of reagent, the time to read-out.

Test: 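Fly genes whose loss alters ERK activation after insulin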 (primary screen)
System: Drosophila S2R+ haemocyte-like cells expressing YFP-tagged ERK (Rolled)
Reagents: long dsRNA against Drosophila genes
Challenge: insulin stimulation versus unstimulated cells; dose and duration not given
Detection: 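Per-plate z-scores of phospho-ERK immunostaining normalised to YFP-tagged ERK, measured with and without insulin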
Reading the numbers: replicate 1, z-score of dpERK with insulin and replicate 2, z-score of dpERK with insulin: higher = more active ERK per ERK-YFP after insulin

{"Gene": "Nlg3 (Neuroligin 3)", "dsRNA": "DRSC12477", "replicate 1, z-score of dpERK with insulin": 1.5, "replicate 2, z-score of dpERK with insulin": 1.6}
{"Gene": "Nlg3 (Neuroligin 3)", "dsRNA": "DRSC12524", "replicate 1, z-score of dpERK with insulin": -0.64, "replicate 2, z-score of dpERK with insulin": -1.23}
{"Gene": "Nlg3 (Neuroligin 3)", "dsRNA": "DRSC12540", "replicate 1, z-score of dpERK with insulin": 0.74, "replicate 2, z-score of dpERK with insulin": -0.01}
{"Gene": "Nlg3 (Neuroligin 3)", "dsRNA": "DRSC12574", "replicate 1, z-score of dpERK with insulin": 0.48, "replicate 2, z-score of dpERK with insulin": 0.79}
{"Gene": "Or59a (Odorant receptor 59a)", "dsRNA": "DRSC04631", "replicate 1, z-score of dpERK with insulin": -0.29, "replicate 2, z-score of dpERK with insulin": -0.22}
{"Gene": "CG33255 (retired record) + hpRNA:CR32205 + CR42838", "dsRNA": "DRSC09611", "replicate 1, z-score of dpERK with insulin": -0.05, "replicate 2, z-score of dpERK with insulin": 0.21}
{"Gene": "CG1578", "dsRNA": "DRSC19729", "replicate 1, z-score of dpERK with insulin": 0.82, "replicate 2, z-score of dpERK with insulin": 1.32}
{"Gene": "Nup205 (Nucleoporin 205kD)", "dsRNA": "DRSC19432", "replicate 1, z-score of dpERK with insulin": 0.22, "replicate 2, z-score of dpERK with insulin": -2}
{"Gene": "CG13843", "dsRNA": "DRSC14693", "replicate 1, z-score of dpERK with insulin": 0.78, "replicate 2, z-score of dpERK with insulin": 0}
{"Gene": "CG15721", "dsRNA": "DRSC19688", "replicate 1, z-score of dpERK with insulin": 0.53, "replicate 2, z-score of dpERK with insulin": 0.36}
{"Gene": "Miro (Mitochondrial Rho)", "dsRNA": "DRSC15795", "replicate 1, z-score of dpERK with insulin": -0.77, "replicate 2, z-score of dpERK with insulin": -0.12}
{"Gene": "Nadsyn (NAD synthetase)", "dsRNA": "DRSC20222", "replicate 1, z-score of dpERK with insulin": 0.48, "replicate 2, z-score of dpERK with insulin": 0.75}
{"Gene": "CG6607", "dsRNA": "DRSC16073", "replicate 1, z-score of dpERK with insulin": 1.74, "replicate 2, z-score of dpERK with insulin": 0.02}
{"Gene": "CG10055", "dsRNA": "DRSC12503", "replicate 1, z-score of dpERK with insulin": -0.01, "replicate 2, z-score of dpERK with insulin": -1.44}
{"Gene": "sphe (spheroide)", "dsRNA": "DRSC20203", "replicate 1, z-score of dpERK with insulin": 0.31, "replicate 2, z-score of dpERK with insulin": 0.15}
{"Gene": "CG31800", "dsRNA": "DRSC22525", "replicate 1, z-score of dpERK with insulin": 0.51, "replicate 2, z-score of dpERK with insulin": 1.06}
{"Gene": "CG9853", "dsRNA": "DRSC12343", "replicate 1, z-score of dpERK with insulin": -0.12, "replicate 2, z-score of dpERK with insulin": 0.4}
{"Gene": "CG9853", "dsRNA": "DRSC22840", "replicate 1, z-score of dpERK with insulin": 0, "replicate 2, z-score of dpERK with insulin": -0.23}
{"Gene": "Uba3 (Ubiquitin-like activating enzyme 3)", "dsRNA": "DRSC06377", "replicate 1, z-score of dpERK with insulin": 0.5, "replicate 2, z-score of dpERK with insulin": -0.1}
{"Gene": "IntS6 (Integrator 6)", "dsRNA": "DRSC18281", "replicate 1, z-score of dpERK with insulin": -2.12, "replicate 2, z-score of dpERK with insulin": -2.12}
{"Gene": "path (pathetic)", "dsRNA": "DRSC10361", "replicate 1, z-score of dpERK with insulin": 0.89, "replicate 2, z-score of dpERK with insulin": 0.54}
{"Gene": "Den1 (Deneddylase 1)", "dsRNA": "DRSC07195", "replicate 1, z-score of dpERK with insulin": 0.73, "replicate 2, z-score of dpERK with insulin": -0.74}
{"Gene": "Pstk + CG14210 + Tim9b", "dsRNA": "DRSC19566", "replicate 1, z-score of dpERK with insulin": -1.27, "replicate 2, z-score of dpERK with insulin": -2.43}
{"Gene": "shg (shotgun)", "dsRNA": "DRSC04714", "replicate 1, z-score of dpERK with insulin": 0.36, "replicate 2, z-score of dpERK with insulin": 0.14}
{"Gene": "CG12069", "dsRNA": "DRSC14470", "replicate 1, z-score of dpERK with insulin": 0.39, "replicate 2, z-score of dpERK with insulin": -0.21}
{"Gene": "CG17032", "dsRNA": "DRSC10241", "replicate 1, z-score of dpERK with insulin": 0.26, "replicate 2, z-score of dpERK with insulin": 0.26}
{"Gene": "Fum3 (Fumarase 3)", "dsRNA": "DRSC10592", "replicate 1, z-score of dpERK with insulin": 0.43, "replicate 2, z-score of dpERK with insulin": -0.02}
{"Gene": "Ddc (Dopa decarboxylase)", "dsRNA": "DRSC03314", "replicate 1, z-score of dpERK with insulin": 0.63, "replicate 2, z-score of dpERK with insulin": 0.21}
{"Gene": "Ret (Ret oncogene)", "dsRNA": "DRSC03409", "replicate 1, z-score of dpERK with insulin": -0.29, "replicate 2, z-score of dpERK with insulin": 0.2}
{"Gene": "Ret (Ret oncogene)", "dsRNA": "DRSC03410", "replicate 1, z-score of dpERK with insulin": -0.48, "replicate 2, z-score of dpERK with insulin": 0}
{"Gene": "CG11694", "dsRNA": "DRSC14354", "replicate 1, z-score of dpERK with insulin": 0.24, "replicate 2, z-score of dpERK with insulin": 0.53}
